According to patent US20150366836A1, “METHOD AND PHARMACEUTICAL COMPOSITION FOR TREATING COLORECTAL CANCER” (National Dong Hua University, priority 2014, published 2015):
At least one structure is not confirmed: it was looked up by name or label, or the drawing left a doubt.

Experiments:
[1] = test system: Caco2 cells; test: Cell cycle analysis by flow cytometer (PI staining), Caco2 cells; format: cell-based
Method: (§1) The results of Example 2 in cell viability hinted the effects of HCD, PG, and 5-FU on arresting cell cycle. In this example, the phase of cell cycle of Caco2 and HT-29 cells after the treatment listed in Table 1 was determined by flow cytometer. Briefly, 7×10^4 cells per well were inoculated in 12-wells plate and incubated overnight at 37° C., 5% CO2. Then, cells were treated according to the treatment listed in Table 1 by indicated time period. After treatment, cells were harvested by trypsin and fixed with 70% ethanol at −20° C. for at least 3 hr. The cells were washed in cold PBS twice and then incubated with 1 mL (v/v) staining solution (20 μg/mL propidium iodide (PI), 0.1% Triton X-100, 0.2 mg/mL Rnase) at 37° C. for 30 minutes. Lastly, cells were analyzed by flow cytometer (Cytomics™ FC500, Backman, Fullerton, Calif., USA). Data from 10,000 cells were collected for each experimental group.

[2] = test system: HT-29 cells; test: Cell cycle analysis by flow cytometer (PI staining), HT-29 cells; format: cell-based
Method: as §1

In the case of `CCCCCC1=C/C(=C/c2[nH]c(-c3ccc[nH]3)cc2OC)N=C1C` [PG, Prodigiosin], the “cell cycle arrest at sub-G1 phase vs control (in words)” value [1] is reported as “increased cell cycle arrest at sub-G1 phase” and the “cell cycle arrest at sub-G1 phase vs control (in words)” value [2] is reported as “increased cell cycle arrest at sub-G1 phase”.
